In paper PMC5331220 one finds binding data, which are given here for 2 substances.

Sequences of proteins named here, by UniProt entry; tags and fusion partners are left off. A change or cut given only in a name is not applied to a line headed by its entry.
UniProt Q15286: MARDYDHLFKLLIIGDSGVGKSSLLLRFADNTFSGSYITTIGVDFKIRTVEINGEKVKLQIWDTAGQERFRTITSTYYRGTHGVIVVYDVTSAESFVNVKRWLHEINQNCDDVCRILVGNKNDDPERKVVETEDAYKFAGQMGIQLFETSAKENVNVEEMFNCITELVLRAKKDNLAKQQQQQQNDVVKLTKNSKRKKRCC
UniProt Q8TDZ2: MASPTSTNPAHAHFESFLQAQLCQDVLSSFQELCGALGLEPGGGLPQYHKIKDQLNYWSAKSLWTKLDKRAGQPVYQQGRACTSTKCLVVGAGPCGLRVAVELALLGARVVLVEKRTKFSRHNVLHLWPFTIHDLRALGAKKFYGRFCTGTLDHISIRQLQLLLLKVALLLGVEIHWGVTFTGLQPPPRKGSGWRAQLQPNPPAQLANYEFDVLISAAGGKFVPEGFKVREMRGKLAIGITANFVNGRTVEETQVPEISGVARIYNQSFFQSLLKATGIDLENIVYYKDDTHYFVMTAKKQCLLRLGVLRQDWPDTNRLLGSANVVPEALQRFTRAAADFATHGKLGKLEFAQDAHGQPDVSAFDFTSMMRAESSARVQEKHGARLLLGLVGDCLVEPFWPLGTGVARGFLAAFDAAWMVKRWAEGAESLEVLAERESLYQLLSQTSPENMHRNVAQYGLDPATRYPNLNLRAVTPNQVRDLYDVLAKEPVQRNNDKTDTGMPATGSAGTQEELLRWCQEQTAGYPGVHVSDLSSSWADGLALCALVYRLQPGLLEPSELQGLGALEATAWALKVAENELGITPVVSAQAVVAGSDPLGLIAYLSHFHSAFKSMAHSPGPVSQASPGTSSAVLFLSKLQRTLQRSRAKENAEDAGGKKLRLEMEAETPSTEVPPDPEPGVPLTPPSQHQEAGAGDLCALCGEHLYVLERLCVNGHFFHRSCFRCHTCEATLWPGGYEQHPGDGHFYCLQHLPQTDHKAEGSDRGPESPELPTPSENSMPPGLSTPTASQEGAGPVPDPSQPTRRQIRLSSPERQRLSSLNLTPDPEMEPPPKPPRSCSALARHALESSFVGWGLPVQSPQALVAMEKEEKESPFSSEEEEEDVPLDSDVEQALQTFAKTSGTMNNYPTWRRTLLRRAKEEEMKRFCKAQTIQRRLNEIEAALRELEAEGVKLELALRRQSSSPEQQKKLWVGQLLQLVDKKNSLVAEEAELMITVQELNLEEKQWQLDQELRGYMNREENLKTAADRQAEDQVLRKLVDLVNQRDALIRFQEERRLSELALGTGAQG

This assay deals with LexA-fused human Rab35^Q67L (GTP-locked mutant) (human) (UniProt Q15286). The experiment in a line: two-hybrid; S. cerevisiae reporter strain L40 co-transformed with pGAD-MICAL1 and pLex-Rab35 constructs; growth on medium without histidine.

No constants are given. Whether binding was seen depends on the method and setting. Binding calls can cover weak binding; strength is not graded here.

As to “GAD-fused MICAL1^879–1067 mutant S1 (from UniProt Q8TDZ2) (domain or fragment)”, the binding result is given as “binds”.
For “MICAL1 C-terminal tail E1001R (two-hybrid construct) (from UniProt Q8TDZ2) (domain or fragment)”, the binding result is given as “binds”.
